Experimental data reported in patent publication US7323319B2, “RNA containing coenzymes, biotin, or fluorophores, and methods for their preparation and use” (The University of Southern Mississippi, priority 2003, dated 2008).
For at least one compound, name, drawing or mass did not settle the structure. Some of these results come from one statement about several compounds together.

The chains behind the UniProt entries cited, without tags or fusion partners. Where a name states a change or a piece, a line headed by the entry shows the natural chain unless it says otherwise.
UniProt P00573: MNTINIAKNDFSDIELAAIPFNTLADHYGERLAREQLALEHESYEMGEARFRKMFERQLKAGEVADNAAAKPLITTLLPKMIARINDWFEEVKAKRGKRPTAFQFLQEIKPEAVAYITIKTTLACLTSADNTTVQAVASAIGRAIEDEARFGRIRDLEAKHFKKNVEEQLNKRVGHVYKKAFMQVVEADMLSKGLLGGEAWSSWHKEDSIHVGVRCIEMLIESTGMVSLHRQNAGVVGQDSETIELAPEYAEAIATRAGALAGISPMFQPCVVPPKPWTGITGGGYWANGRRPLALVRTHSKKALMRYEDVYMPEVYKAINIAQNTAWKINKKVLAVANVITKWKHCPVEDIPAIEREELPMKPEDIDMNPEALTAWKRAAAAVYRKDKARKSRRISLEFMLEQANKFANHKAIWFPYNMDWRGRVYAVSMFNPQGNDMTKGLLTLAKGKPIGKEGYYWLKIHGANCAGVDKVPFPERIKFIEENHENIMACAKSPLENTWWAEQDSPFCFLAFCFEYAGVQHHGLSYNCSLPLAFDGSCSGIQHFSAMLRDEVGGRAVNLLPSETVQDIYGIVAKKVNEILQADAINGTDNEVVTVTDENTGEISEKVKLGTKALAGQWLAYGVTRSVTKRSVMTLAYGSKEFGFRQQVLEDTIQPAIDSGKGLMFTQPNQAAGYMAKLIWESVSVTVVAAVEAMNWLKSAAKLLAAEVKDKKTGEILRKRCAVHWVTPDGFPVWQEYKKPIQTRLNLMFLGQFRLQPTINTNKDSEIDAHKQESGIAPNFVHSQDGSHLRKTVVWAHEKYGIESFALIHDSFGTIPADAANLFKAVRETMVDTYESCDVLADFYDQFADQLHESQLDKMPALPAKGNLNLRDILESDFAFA

Target: T7 RNA polymerase (Escherichia phage T7, UniProt P00573)
Assay: Coenzyme-initiated in vitro transcription of CoES7 RNA under T7 class II promoter, PAGE and phosphorimaging
Format: biochemical
Settings: for coenzyme-RNA (CoE-RNA) yield over total RNA synthesized: 4-8 mM coenzyme, standard transcription conditions
Protocol: Transcription promoter sequence was derived from the T7 class II promoter (φ2.5) (FIG. 1) (Dunn, J. J., and Studier, F. W., J. Mol. Biol. 166: 477-535 (1983)). The RNA sequence was from a previously isolated coenzyme-synthesizing ribozyme (Huang, F., et al., Biochemistry 39: 15548-15555 (2000)), CoES7, with the sequence of 5′-[…]-3′ (SEQ ID NO:1). Transcription was carried out under the following standard conditions: 1 mM each of ATP, UTP, GTP, and CTP, 40 mM Tris (pH 8.0), 6 mM MgCl2, 2 mM spermidine, 0.01% Triton X-100, 5 mM DTT, 0.2 unit/mL RNase inhibitor, […] DNA templates, and 5 unit/mL T7 RNA polymerase. In addition, different concentrations of coenzymes, De-P-CoA, NAD, and FAD were included to initiate transcription. For quantitation purposes, [α-^32P]ATP (NEN Life Science, Boston, Mass.) was also added to transcription solutions to internally label RNA transcripts. All transcription reactions were allowed to proceed for 2 hours at 37° C. before product analysis by 8% denaturing PAGE.
Transcription of CoES7 RNA was carried out under the standard conditions, with the addition of various concentrations of coenzymes. After fractionation by PAGE, different RNA bands became clearly visible. In the absence of any coenzymes (lane 1), transcription produced three pppRNA bands in decreasing order: the full-length RNA transcripts (N band), N+1, and N+2 bands (with one and two extra nucleotides added at the 3′ end of full-length RNA). Their relative yields were 59%, 35%, and 6% (from N to N+2), respectively. When one of the three coenzymes, De-P-CoA, NAD, and FAD, was added to the transcription solution (lanes 2-4), no additional RNA bands were generated. However, the relative intensity of the three RNA bands in each lane changed considerably when compared with that of lane 1. […] In the presence of 4 mM De-P-CoA (lane 2), the relative intensity of the three bands changed to 40%, 45%, and 15% (from N to N+2). The relative RNA band intensity were 30%, 49%, and 21% for both NAD- and FAD-initiated transcription (lanes 3 and 4). These changes in RNA band relative intensity resulted from the incorporation of coenzymes (De-P-CoA, NAD, and FAD) into RNA. When one of these coenzymes is incorporated to the 5′ end of RNA, the coenzyme-linked RNA (CoE-RNA) behaves as if an extra normal nucleotide is added to the pppRNA. Therefore, the N band CoE-RNA co-migrates with the N+1 band pppRNA, while the N+1 band CoE-RNA and the N+2 band pppRNA run together in the gel. The N+2 band CoE-RNA was barely visible because of its low intensity. To confirm the incorporation of coenzymes into RNA under the class II promoter, three independent experiments were performed: resolution of CoA-RNA from pppRNA by gel after DNazyme cleavage, measurement of free sulfhydryl group of CoA-RNA, and fluorescence emission spectrum of FAD-RNA.

[1] = 4 mM coenzyme, 1 mM each NTP, CoES7 RNA, 2 hours 37° C.

SMILES | coenzyme-RNA (CoE-RNA) yield over total RNA synthesized | relative intensity of N band RNA [1] [%] | relative intensity of N+1 band RNA [1] [%] | relative intensity of N+2 band RNA [1] [%] | effect on total RNA yield (transcription) (different coenzyme concentrations (De-P-CoA: low concentrations; FAD: especially >4 mM), FIGS. 4A-4C)
Cc1cc2nc3c(=O)[nH]c(=O)nc-3n(C[C@H](O)[C@H](O)[C@H](O)COP(=O)(O)OP(=O)(O)OC[C@H]3O[C@@H](n4cnc5c(N)ncnc54)[C@H](O)[C@@H]3O)c2cc1C [FAD, flavin adenine dinucleotide] | 35-40% | – | – | – | –
NC(=O)c1ccc[n+]([C@@H]2O[C@H](COP(=O)([O-])OP(=O)(O)OC[C@H]3O[C@@H](n4cnc5c(N)ncnc54)[C@H](O)[C@@H]3O)[C@@H](O)[C@H]2O)c1 [NAD, nicotinamide adenine dinucleotide] | 35-40% | 30 | 49 | 21 | slightly stimulate transcription
